Laboratory results published in US20240409624A1.
No constants are given. Whether binding was seen depends on the method and setting. Some results given as binding are weak or reduced against the parent protein; the word gives no strength. Tags and fused reporters may be left off the sequences shown.

Sequences of proteins named here, by UniProt entry; tags and fusion partners are left off. A change or cut given only in a name is not applied to a line headed by its entry. A line that says so, or that is headed by a name, gives the form on record, which may keep a tag or linker.
1N4 R tau (P10636, form named): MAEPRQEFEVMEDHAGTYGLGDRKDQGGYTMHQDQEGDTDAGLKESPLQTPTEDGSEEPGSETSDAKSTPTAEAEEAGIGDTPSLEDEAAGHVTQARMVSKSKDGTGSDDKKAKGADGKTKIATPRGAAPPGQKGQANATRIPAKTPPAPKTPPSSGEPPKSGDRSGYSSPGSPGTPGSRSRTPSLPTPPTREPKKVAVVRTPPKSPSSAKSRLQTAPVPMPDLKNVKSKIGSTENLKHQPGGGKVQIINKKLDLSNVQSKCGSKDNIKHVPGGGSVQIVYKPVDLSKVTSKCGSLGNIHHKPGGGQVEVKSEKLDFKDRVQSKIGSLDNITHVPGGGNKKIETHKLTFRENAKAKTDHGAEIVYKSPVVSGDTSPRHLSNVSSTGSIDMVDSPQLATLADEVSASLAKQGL

Assays:
2N4 R tau (human) [1] = molecular target: 2N4 R tau (human) (UniProt P10636); assay: Western blot of 2N3R, 2N4R and mock lysates probed with VR7082 scFv-Ms-Fc
1N4 R tau (human) [2] = molecular target: 1N4 R tau (human) (UniProt P10636); assay: ELISA, scFv-Ms-Fc titrated about 3 to 10000 ng/ml on coated tau isoform, OD 630 nm
2N4 R tau (human) [3] = molecular target: 2N4 R tau (human) (UniProt P10636); assay: as above
1N4 R tau (human) [4] = molecular target: 1N4 R tau (human) (UniProt P10636); assay: flow cytometry, scFv-Ms-Fc titrated about 3 to 10000 ng/ml on cells transfected with the tau isoform, mean fluorescence of transfected cells
2N4 R tau (human) [5] = molecular target: 2N4 R tau (human) (UniProt P10636); assay: as above

binding (2N4 R tau (human) [1]): binds
binding (1N4 R tau (human) [2]): binds
binding (2N4 R tau (human) [3]): binds
binding (1N4 R tau (human) [4]): binds
binding (2N4 R tau (human) [5]): binds
B1: VR7082 scFv-Ms-Fc (Fc fusion, not shown: a dimerising Fc or GST)
scFv: MAQSVEESGGRLVTPGTPLTLTCTVSGIDLSNYAMIWVRQAPGEGLEYIGIISSTGNTFYATWAKGRFTISKTSTTVDLKITSPTAEDTATYFCARDTNSDSHYGWEAFNIWGPGTLVTVSSGGGGSGGGGSGGGGSGGGGSAVVLTQTPASVEAAVGGTVSINCQASEDIESYLAWYQQKPGQRPKLLIYRASTLASGVSSRFKGSGSGTEYTLTISGVECADAATYYCQEGYSIHVDNVFGGGTEVVVK
